The target in the assay is T1, FKBP39 N-terminal half (amino acids 1-150) C-terminally tagged with protein A (Drosophila melanogaster) (UniProt P54397).
T1 sequence: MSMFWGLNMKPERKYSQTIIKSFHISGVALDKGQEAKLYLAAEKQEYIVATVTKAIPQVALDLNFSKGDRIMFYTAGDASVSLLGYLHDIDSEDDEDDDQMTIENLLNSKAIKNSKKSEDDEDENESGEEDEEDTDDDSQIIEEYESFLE
Kind of assay: affinity purification with mass spectrometry; protein-A-tagged bait expressed in Drosophila D.Mel-2 cells; cleared lysates bound to rabbit IgG DynaBeads, washed, eluted with 0.5 M NH4OH; SDS-PAGE and LC-MS/MS.

No constants are given. Whether binding was seen depends on the method and setting. In cells and extracts the contact can be indirect. A yes stands for co-enrichment or nearness to the bait. Other partners may have been found. Tags and fused reporters may be left off the sequences shown.

B1: endogenous full-length FKBP39 (protein, UniProt P54397 1-357)
chain: MSMFWGLNMKPERKYSQTIIKSFHISGVALDKGQEAKLYLAAEKQEYIVATVTKAIPQVALDLNFSKGDRIMFYTAGDASVSLLGYLHDIDSEDDEDDDQMTIENLLNSKAIKNSKKSEDDEDENESGEEDEEDTDDDSQIIEEYESFLENGEEEDDDDVDEDNEESGEEDEQDSDDSEAEEEQPKAKVAKLSPGASAKKSGKEQNGVAKKEEAKQQQKKKEKPEAKKEQPKAKEPAKQQPASKDPRTITGGVKIVDQVVGKGEEAKQGKRVSVYYIGRLQSNNKTFDSLLKGKPFKFALGGGEVIKGWDVGVAGMKVGGKRVITCPPHMAYGARGAPPKIGPNSTLVFEVELKAVH
As for B1, the binding result is “binds”.

These data come from article PMC4414354, “The Pentameric Nucleoplasmin Fold Is Present in Drosophila FKBP39 and a Large Number of Chromatin-Related Proteins” (Journal of Molecular Biology, 2015).
